According to patent US5981525A, “Indole derivatives useful in the treatment of osteoporosis” (SmithKline Beecham Corporation, priority 1995, dated 1999):
For at least one compound, name, drawing or mass did not settle the structure.

Target: bafilomycin-sensitive ATPase
Test: Inhibition of bafilomycin-sensitive ATPase in chicken osteoclasts (ATPase assay, Pi release)
Type: biochemical
Conditions: chicken osteoclast membranes
Experimental: Vesicles were prepared from medullar bone obtained from tibiae and femurs of egg-laying hens which were calcium-starved for at least 15 days. Briefly, bone fragments were scraped with a 24 scalpel blade, suspended in 40 ml of isolation medium (0.2 M sucrose, 50 mM KCl, 10 mM Hepes, 1 mM EGTA, 2 mM dithiotheitrol, pH 7.4) and filtered through a 100 μm pore size nylon mesh. The whole procedure was performed at 4° C. After homogenisation in a potter (20 strokes) in 40 ml of isolation medium an initial centrifugation (6,500×gmax 20 min) was performed to remove mitochondria and lysosomes. The supematant was centrifuged at 100,000×gmax for 1 hr and the pellet was collected in 1 ml of isolation medium, divided into 200 μl aliquots, immediately frozen in liquid nitrogen and stored at -80° C. The protein content was determined using a Biorad colourimetric kit according to Bradford [M. Bradford, Anal. Biochem., 72, 248 (1976)]. […]
Inhibition of bafilomycin-sensitive ATPase activity was assessed in purified membrane vesicles by measuring the release of inorganic phosphate (Pi) during 30 min of incubation at 37° C. in a 96-well plate either in the presence or in the absence of bafilomycin Al. […] Absorbance at 650 nm was measured after 2 min using a microplate reader. Results are expressed as μmol (Pi)×mg protein^-1 ×hour^-1 and, for each experiment, represent the mean±sem of triplicates.

Q: How did the IC50 turn out when `CO/C(=C\C=C\c1cc2cc(Cl)c(Cl)cc2[nH]1)C(=O)NCC(C)(C)CN(C)C` [Example 64, (2Z,4E)-5-(5,6-Dichloro-2-indolyl)-2-methoxy-N-methyl-N-(dimethylamino-2,2-dimethylpropyl)-2,4-pentadienamide] was run?
A: The IC50 was 0.15 µM.
